The text below walks through data of PMC8179133.

Sequences of proteins named here, by UniProt entry; tags and fusion partners are left off. Residues count along the entry.
UniProt P15502, residues 27-786: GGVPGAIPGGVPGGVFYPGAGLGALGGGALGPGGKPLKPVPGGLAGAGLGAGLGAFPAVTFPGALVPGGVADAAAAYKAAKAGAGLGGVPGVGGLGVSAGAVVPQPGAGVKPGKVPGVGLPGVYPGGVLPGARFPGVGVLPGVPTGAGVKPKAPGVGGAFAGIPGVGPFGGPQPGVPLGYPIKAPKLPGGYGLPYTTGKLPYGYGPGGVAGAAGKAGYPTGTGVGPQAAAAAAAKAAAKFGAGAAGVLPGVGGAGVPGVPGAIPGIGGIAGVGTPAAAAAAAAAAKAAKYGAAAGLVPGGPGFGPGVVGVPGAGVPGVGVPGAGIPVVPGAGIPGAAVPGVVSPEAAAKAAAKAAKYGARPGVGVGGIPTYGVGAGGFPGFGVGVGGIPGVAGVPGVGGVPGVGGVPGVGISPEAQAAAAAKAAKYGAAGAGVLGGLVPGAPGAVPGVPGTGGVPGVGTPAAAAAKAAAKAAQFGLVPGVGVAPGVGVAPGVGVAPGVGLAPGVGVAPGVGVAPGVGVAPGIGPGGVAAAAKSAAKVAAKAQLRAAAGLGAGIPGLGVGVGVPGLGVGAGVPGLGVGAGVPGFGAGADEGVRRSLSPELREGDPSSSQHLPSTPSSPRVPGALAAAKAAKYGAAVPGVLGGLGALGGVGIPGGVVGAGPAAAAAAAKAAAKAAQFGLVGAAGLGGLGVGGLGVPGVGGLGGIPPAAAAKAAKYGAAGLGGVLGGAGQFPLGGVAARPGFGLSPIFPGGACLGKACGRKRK
UniProt P02769, residues 25-607: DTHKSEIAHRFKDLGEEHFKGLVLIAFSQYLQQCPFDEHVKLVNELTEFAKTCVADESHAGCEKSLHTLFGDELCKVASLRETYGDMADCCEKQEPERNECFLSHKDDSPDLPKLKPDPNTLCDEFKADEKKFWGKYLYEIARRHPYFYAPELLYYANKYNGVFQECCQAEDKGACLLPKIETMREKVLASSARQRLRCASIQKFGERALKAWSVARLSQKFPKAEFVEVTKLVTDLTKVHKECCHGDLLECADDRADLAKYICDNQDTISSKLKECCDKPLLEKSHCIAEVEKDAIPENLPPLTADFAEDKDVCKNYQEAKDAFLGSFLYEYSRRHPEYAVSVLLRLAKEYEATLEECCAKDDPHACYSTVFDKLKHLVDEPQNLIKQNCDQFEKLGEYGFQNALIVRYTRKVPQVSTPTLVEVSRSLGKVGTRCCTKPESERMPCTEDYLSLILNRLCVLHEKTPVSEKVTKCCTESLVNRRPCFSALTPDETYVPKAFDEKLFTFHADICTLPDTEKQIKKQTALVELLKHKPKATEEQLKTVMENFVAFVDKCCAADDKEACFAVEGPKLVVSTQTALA

The target in experiment [1] is elastin from human skin (human) (UniProt P15502). Put plainly: ELISA; putative ligands (5 µg/mL in carbonate-bicarbonate buffer, 50 µL) adsorbed on MaxiSorp plates O/N at 4 °C; blocked 1 h with 3% BSA or 1% gelatin in PBS; serial twofold dilutions of 6His-PilB (40 to 0.625 µg/mL) for 2 h at 37 °C; detected with anti-6His antibody and HRP-linked anti-rabbit IgG, read at 450 nm; Kd by nonlinear regression (One site - Total and nonspecific binding) with BSA or gelatin as nonspecific binding control; both purified. (ELISA stands for enzyme-linked immunosorbent assay.)

Experiment [2] deals with bovine serum albumin (bovine) (UniProt P02769). The experiment is described as above.

These are yes or no findings as the source states them, for the method shown.

For the substance “6His-PilB_(36-461) (from UniProt A0A0B7GP99 36-461) (domain or fragment)”, the binding result in experiment [1] and in experiment [2] was “no binding (tested: 40 µg/mL (highest concentration of PilB))” throughout.
